Experimental data: PubChem BioAssay AID1159578 (Peter MacCallum Cancer Centre, 2015)
This is one part, drawn at random, of about 18,000 reagents tested. About 1,030 of them (5.7%) count as active. 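Inactive calls also include pools with fewer than 3300 nuclei, whose migration was not assessed.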 The raw values are shown without normalisation. Entries without a mark were called inactive.

Screen: 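siRNA pools altering how lymphatic endothelial cells close a scratch wound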 (primary screen)
Cells: human lymphatic endothelial cells
Reagents: siRNA pool against human genes, 40 nM
Timing: 48 h after transfection
Detection: 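High-content imaging of dye-stained cells in a scratch assay measures filled wound area and nuclei per well; duplicate means given as ratio to mock and robust z-score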
Reading the numbers: migration robust z-score: higher = faster migration into the scratch; migration relative to mock: higher = more scratch area covered than mock; nuclei per well: higher = more cells in the well
Rule for the call: 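Migration changed when robust z exceeds 2 or falls below -2 and mean nuclei number is at least 3300; otherwise not called changed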
Meaning of the calls: active = migration changed; inactive = no migration change, or too few cells

The opening 4 records, ahead of the listing:
| Target gene | migration robust z-score | migration class with cell-count check | migration relative to mock | nuclei per well, duplicate mean |
| --- | --- | --- | --- | --- |
| PIGR | -2.02 (active) | migration z below -2; enough cells | 0.42 | 4574 |
| NVL | 0.37 | migration z between -2 and 2; enough cells | 0.98 | 4753 |
| CDH16 | -0.77 | migration z between -2 and 2; enough cells | 0.66 | 4785 |
| PCDHB2 | 0.99 | migration z between -2 and 2; enough cells | 1.14 | 6041 |

The listing, repeating the preview:
| Target gene | migration robust z-score | migration class with cell-count check | migration relative to mock | nuclei per well, duplicate mean |
| --- | --- | --- | --- | --- |
| PIGR | -2.02 (active) | migration z below -2; enough cells | 0.42 | 4574 |
| NVL | 0.37 | migration z between -2 and 2; enough cells | 0.98 | 4753 |
| CDH16 | -0.77 | migration z between -2 and 2; enough cells | 0.66 | 4785 |
| PCDHB2 | 0.99 | migration z between -2 and 2; enough cells | 1.14 | 6041 |
| TMEM14A | -0.39 | migration z between -2 and 2; enough cells | 0.78 | 5214 |
| C12orf71 | 1 | migration z between -2 and 2; enough cells | 1.15 | 5698 |
| KIF17 | -0.62 | migration z between -2 and 2; enough cells | 0.68 | 5730 |
| FGD1 | -0.36 | migration z between -2 and 2; enough cells | 0.8 | 6356 |
| ABCC1 | 1.68 | migration z between -2 and 2; enough cells | 1.13 | 4350 |
| LCTL | -0.44 | migration z between -2 and 2; enough cells | 0.72 | 6331 |
| ZDHHC19 | 0.12 | migration z between -2 and 2; enough cells | 0.92 | 6696 |
| BMPR2 | -0.83 | migration z between -2 and 2; enough cells | 0.64 | 5529 |
| SYCP2 | 1.15 | migration z between -2 and 2; enough cells | 1.19 | 5954 |
| POLR3C | -1.22 | migration z between -2 and 2; enough cells | 0.57 | 5047 |
| NQO2 | 0.05 | migration z between -2 and 2; enough cells | 0.82 | 4622 |
| CCDC191 | -1.31 | migration z between -2 and 2; enough cells | 0.55 | 4200 |
| SRSF8 | 1.31 | migration z between -2 and 2; enough cells | 1.24 | 5093 |
| BARHL1 | -0.02 | migration z between -2 and 2; enough cells | 0.88 | 5714 |
| ST8SIA3 | -0.83 | migration z between -2 and 2; enough cells | 0.64 | 6463 |
| TPRX1 | -1.13 | migration z between -2 and 2; enough cells | 0.6 | 6232 |
| PIN4 | -0.03 | migration z between -2 and 2; enough cells | 0.88 | 6843 |
| ZAN | 0.36 | migration z between -2 and 2; enough cells | 0.98 | 5892 |
| KICS2 | 1.35 | migration z between -2 and 2; enough cells | 1.23 | 5056 |
| ENPP5 | 0.16 | migration z between -2 and 2; enough cells | 0.84 | 5588 |
| VIPAS39 | 0.4 | migration z between -2 and 2; enough cells | 0.99 | 5627 |
| NUP58 | 1.43 | migration z between -2 and 2; enough cells | 1.26 | 6732 |
| CYP2J2 | 1.06 | migration z between -2 and 2; enough cells | 1.01 | 5544 |
| SLC25A20 | -1.22 | migration z between -2 and 2; enough cells | 0.57 | 6080 |
| RAB40B | -0.16 | migration z between -2 and 2; enough cells | 0.78 | 4936 |
| TMEM182 | 0.88 | migration z between -2 and 2; enough cells | 1.12 | 6107 |
| TSC22D4 | 0.43 | migration z between -2 and 2; enough cells | 1 | 6418 |
| WNT8A | -0.21 | migration z between -2 and 2; enough cells | 0.83 | 5432 |
| CDHR3 | 1.13 | migration z between -2 and 2; enough cells | 1.18 | 5406 |
| CARS2 | 1.57 | migration z between -2 and 2; enough cells | 1.29 | 6484 |
| KSR1 | -1.38 | migration z between -2 and 2; enough cells | 0.54 | 3632 |
| SYDE1 | 0.02 | migration z between -2 and 2; enough cells | 0.89 | 3800 |
| HRAS | 1.56 | migration z between -2 and 2; enough cells | 1.1 | 6612 |
| TSPEAR | 0.16 | migration z between -2 and 2; enough cells | 0.92 | 5570 |
| DLGAP4 | -0.25 | migration z between -2 and 2; enough cells | 0.82 | 5816 |
